Source: the supplement of paper PMC10849652
The list shows a part of the results.

By UniProt entry, the sequences of proteins in these tests, tags left out. Where a name states a change or a piece, a line headed by the entry shows the natural chain unless it says otherwise.
UniProt Q99426: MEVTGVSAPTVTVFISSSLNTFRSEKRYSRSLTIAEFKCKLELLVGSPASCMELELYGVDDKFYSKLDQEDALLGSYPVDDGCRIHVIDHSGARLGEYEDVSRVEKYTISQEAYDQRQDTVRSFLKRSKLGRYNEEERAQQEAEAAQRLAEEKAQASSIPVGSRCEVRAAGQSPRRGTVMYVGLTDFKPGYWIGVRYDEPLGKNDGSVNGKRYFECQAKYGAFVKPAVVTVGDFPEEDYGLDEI
UniProt Q15813: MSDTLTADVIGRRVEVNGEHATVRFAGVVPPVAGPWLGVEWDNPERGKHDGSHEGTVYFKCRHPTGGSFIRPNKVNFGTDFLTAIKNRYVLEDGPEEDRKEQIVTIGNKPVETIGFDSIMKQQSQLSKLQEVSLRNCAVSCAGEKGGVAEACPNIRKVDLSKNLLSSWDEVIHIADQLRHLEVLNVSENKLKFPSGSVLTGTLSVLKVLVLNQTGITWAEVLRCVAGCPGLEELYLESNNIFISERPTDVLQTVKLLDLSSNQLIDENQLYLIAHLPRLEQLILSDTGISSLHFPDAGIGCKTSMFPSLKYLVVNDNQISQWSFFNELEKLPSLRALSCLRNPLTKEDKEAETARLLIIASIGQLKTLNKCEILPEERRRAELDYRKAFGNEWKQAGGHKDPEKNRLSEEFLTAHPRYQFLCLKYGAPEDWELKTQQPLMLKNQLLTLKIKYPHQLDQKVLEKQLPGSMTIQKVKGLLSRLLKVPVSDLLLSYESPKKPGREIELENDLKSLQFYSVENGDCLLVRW
UniProt O43493: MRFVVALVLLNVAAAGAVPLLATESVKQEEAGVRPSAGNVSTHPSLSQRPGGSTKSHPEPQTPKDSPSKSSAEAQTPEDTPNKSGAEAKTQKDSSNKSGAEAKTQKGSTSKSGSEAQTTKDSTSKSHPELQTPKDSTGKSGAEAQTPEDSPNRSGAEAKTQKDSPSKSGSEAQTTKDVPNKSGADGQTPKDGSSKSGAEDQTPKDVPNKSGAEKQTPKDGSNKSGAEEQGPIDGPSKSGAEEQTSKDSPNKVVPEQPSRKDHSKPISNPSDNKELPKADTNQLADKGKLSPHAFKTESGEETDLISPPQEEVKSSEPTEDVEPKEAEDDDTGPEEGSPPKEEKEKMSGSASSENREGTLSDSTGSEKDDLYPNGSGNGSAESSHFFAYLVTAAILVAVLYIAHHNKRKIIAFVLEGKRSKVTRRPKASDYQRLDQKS
UniProt Q9Y5J9: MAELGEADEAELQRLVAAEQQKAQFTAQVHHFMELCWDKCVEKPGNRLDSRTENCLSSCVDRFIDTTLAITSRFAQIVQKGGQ
UniProt Q8WVM0: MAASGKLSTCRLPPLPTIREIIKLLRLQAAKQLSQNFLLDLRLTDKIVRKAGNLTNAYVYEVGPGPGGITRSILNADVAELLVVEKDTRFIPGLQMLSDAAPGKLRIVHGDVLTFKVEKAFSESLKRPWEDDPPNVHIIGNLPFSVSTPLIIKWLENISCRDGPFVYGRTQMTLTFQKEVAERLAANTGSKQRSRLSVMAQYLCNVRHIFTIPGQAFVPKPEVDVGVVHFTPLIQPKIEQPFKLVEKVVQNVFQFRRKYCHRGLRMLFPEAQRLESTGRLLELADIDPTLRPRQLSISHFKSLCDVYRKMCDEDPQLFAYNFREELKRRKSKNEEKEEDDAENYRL
UniProt Q96CP7: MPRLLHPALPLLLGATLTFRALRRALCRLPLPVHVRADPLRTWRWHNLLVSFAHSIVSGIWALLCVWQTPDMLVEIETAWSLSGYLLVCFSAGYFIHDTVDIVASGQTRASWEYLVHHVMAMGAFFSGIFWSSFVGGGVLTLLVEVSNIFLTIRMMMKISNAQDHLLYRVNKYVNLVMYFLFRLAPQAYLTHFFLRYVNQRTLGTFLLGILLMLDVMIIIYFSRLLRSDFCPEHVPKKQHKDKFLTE
UniProt Q92734, whole entry, looked up: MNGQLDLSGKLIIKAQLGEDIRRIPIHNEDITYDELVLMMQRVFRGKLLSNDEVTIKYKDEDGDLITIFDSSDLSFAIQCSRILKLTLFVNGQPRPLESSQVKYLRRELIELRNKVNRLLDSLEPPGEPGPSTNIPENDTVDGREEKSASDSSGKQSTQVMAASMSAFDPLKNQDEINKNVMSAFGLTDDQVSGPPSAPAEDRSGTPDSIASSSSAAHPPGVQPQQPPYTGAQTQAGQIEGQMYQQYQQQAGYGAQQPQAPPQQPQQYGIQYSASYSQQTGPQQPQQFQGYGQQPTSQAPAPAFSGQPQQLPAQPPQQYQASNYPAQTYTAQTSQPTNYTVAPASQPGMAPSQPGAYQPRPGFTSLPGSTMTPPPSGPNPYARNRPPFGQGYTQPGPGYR
UniProt Q9Y5J6: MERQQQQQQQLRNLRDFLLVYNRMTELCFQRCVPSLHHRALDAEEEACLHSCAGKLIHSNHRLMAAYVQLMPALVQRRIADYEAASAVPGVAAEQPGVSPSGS
UniProt B5MCY1: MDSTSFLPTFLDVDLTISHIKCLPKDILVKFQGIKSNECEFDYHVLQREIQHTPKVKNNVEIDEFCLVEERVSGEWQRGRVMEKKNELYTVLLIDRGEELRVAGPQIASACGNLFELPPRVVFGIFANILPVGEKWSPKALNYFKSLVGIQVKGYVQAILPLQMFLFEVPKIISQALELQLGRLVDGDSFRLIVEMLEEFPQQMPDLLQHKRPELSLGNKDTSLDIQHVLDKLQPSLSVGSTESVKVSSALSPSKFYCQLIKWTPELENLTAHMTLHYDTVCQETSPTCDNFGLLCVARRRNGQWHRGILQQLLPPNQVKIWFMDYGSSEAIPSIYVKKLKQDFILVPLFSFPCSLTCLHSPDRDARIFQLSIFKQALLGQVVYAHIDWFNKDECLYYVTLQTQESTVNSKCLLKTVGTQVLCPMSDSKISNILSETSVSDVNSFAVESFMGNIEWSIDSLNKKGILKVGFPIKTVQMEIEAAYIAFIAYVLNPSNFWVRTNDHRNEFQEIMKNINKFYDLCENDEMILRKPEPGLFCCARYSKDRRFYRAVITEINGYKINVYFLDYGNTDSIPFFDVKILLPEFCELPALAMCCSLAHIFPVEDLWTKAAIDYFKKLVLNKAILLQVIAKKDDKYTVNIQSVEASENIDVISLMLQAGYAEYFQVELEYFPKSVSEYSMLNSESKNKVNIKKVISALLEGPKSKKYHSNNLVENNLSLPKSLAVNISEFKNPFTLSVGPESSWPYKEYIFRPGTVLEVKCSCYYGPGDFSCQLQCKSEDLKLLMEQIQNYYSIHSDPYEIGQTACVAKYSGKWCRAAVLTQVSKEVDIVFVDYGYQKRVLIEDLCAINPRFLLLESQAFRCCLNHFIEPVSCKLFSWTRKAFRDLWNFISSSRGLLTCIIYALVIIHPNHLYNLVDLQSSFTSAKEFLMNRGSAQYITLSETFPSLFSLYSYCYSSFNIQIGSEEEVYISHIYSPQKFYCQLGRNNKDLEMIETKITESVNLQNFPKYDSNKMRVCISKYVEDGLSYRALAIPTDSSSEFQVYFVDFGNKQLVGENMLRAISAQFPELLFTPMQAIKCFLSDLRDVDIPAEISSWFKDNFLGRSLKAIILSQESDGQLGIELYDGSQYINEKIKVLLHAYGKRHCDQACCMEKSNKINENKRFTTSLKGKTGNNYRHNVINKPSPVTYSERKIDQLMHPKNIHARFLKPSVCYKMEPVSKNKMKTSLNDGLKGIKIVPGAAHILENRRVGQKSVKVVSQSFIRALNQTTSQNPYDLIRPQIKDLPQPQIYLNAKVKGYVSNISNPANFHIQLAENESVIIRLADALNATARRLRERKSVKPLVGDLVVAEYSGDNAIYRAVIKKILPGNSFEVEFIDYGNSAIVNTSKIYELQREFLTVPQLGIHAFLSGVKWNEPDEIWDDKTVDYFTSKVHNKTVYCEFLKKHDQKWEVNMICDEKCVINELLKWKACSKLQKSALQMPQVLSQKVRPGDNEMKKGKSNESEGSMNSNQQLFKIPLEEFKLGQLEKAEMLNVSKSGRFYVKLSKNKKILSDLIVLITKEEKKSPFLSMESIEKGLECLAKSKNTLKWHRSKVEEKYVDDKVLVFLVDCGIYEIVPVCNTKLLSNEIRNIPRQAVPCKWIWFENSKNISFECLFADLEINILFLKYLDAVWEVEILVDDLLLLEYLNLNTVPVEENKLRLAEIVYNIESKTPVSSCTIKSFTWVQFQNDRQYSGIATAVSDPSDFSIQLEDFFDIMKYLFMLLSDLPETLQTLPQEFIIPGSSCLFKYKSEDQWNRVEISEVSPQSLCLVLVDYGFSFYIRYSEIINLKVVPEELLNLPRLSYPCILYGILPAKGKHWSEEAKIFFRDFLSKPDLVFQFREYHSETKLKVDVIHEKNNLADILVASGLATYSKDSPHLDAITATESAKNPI
UniProt Q9NUJ3: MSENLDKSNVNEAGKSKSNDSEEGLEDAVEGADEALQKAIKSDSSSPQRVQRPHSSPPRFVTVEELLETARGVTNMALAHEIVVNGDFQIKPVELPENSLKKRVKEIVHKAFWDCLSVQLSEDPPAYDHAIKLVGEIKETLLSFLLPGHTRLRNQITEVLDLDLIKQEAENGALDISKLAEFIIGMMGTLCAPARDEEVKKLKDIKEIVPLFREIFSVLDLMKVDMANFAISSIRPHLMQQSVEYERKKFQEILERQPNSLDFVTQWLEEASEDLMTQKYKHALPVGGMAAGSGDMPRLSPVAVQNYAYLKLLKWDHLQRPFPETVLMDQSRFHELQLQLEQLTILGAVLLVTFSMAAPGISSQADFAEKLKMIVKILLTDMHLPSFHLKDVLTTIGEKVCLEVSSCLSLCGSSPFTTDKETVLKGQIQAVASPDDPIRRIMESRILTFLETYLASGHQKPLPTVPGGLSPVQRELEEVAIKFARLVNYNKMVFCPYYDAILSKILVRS
UniProt A6NFQ2: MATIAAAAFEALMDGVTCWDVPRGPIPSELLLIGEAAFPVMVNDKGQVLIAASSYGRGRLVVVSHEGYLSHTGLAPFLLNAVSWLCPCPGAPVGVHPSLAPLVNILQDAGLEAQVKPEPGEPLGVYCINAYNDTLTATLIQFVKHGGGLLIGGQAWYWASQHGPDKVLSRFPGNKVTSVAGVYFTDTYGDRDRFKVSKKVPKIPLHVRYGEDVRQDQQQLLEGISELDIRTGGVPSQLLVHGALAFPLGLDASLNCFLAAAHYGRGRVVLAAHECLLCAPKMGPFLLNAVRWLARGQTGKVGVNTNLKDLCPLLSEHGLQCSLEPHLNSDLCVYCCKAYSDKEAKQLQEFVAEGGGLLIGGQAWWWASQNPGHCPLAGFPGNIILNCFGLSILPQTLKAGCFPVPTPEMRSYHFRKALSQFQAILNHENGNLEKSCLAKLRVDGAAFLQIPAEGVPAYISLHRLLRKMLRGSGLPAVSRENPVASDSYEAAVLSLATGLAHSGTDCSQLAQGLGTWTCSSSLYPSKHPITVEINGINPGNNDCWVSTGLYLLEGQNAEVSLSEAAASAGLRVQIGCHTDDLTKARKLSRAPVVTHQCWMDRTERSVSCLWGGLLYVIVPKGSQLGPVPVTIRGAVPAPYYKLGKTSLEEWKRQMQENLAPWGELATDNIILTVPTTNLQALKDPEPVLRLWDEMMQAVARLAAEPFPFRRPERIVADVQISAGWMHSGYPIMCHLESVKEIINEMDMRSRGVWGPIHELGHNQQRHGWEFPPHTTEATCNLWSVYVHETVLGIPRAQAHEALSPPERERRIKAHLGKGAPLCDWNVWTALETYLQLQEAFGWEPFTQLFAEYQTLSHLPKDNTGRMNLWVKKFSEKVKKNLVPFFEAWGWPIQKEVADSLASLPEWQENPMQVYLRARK
UniProt Q5TEJ8: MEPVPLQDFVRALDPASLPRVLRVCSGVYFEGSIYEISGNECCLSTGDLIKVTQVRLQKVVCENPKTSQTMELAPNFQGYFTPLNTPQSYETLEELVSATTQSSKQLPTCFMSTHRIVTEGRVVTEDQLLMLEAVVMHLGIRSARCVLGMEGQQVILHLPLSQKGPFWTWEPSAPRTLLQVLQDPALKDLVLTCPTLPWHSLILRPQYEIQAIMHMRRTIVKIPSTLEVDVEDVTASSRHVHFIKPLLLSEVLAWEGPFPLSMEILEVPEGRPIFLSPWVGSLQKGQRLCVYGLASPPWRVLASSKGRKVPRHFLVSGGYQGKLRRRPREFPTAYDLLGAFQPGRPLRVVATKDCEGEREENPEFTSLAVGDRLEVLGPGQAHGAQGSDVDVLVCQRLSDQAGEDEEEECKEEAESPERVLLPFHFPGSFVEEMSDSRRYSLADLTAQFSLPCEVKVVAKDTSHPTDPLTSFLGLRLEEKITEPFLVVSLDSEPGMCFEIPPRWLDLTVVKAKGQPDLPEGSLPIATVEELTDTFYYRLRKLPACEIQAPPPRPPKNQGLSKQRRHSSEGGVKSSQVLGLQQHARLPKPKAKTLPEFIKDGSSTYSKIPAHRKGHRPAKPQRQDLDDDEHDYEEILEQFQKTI

Columns and labels:
Experiment in all cases: log2 fold change, soluble protein after heating vs DMSO (PISA); higher = thermal stabilisation; K562 cells, 10 uM, 30 min; active = over 0.2 and 3.5 SD of the protein, either way, in both replicates (recomputed)
[1] = compound: COC1=CC=C(C=C1)CN2C=CC3=C2C=C(C=C3)C(=O)NO
How it was run: (§1)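 For each measurement, 10 μM compound was applied for 30 min to K562 cells at 2×10^6 cells/mL. Aliquots were heated for 3 min across 48°C-58°C, pooled, and extracted in PBS with 0.5% NP-40 at 4°C; the supernatant after 21,000xg for 90 min was soluble protein. This was quantified by TMTpro 16plex LC-MS/MS with channel sums equalised, and thermal stability was reported relative to control samples from duplicates, on a log2 fold-change scale.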

filanesib = compound: CON(C)C(=O)N1N=C(c2cc(F)ccc2F)S[C@@]1(CCCN)c1ccccc1 [filanesib]
How it was run: as §1

zotarolimus = compound: CO[C@H]1C[C@@H]2CC[C@@H](C)[C@@](O)(O2)C(=O)C(=O)N2CCCC[C@H]2C(=O)O[C@H]([C@H](C)C[C@@H]2CC[C@H](n3cnnn3)[C@H](OC)C2)CC(=O)[C@H](C)/C=C(\C)[C@@H](O)[C@@H](OC)C(=O)[C@H](C)C[C@H](C)/C=C/C=C/C=C/1C [zotarolimus]
How it was run: as §1

idasanutlin = compound: COc1cc(C(=O)O)ccc1NC(=O)[C@@H]1N[C@@H](CC(C)(C)C)[C@](C#N)(c2ccc(Cl)cc2F)[C@H]1c1cccc(Cl)c1F [idasanutlin]
How it was run: as §1

alisertib = compound: COc1cc(Nc2ncc3c(n2)-c2ccc(Cl)cc2C(c2c(F)cccc2OC)=NC3)ccc1C(=O)O [alisertib]
How it was run: as §1

[2] = compound: COc1cc2nc(-c3cc(F)ccc3O)nc(N[C@@H]3CNC[C@H]3C(C)(C)O)c2cc1OC
How it was run: as §1

gefitinib = compound: COc1cc2ncnc(Nc3ccc(F)c(Cl)c3)c2cc1OCCCN1CCOCC1 [gefitinib]
How it was run: as §1

[3] = compound: COc1cccc2cc(-c3nc([C@H]4CC[C@H](C(=O)O)CC4)n4ncnc(N)c34)[nH]c12
How it was run: as §1

lapatinib = compound: CS(=O)(=O)CCNCc1ccc(-c2ccc3ncnc(Nc4ccc(OCc5cccc(F)c5)c(Cl)c4)c3c2)o1 [lapatinib]
How it was run: as §1

pictilisib = compound: CS(=O)(=O)N1CCN(Cc2cc3nc(-c4cccc5[nH]ncc45)nc(N4CCOCC4)c3s2)CC1 [pictilisib]
How it was run: as §1

[4] = compound: CS(=O)(=O)c1ccc(-c2cnc(N)c(C(=O)Nc3ccccc3)n2)cc1
How it was run: as §1

crizotinib = compound: C[C@@H](Oc1cc(-c2cnn(C3CCNCC3)c2)cnc1N)c1c(Cl)ccc(F)c1Cl [crizotinib]
How it was run: as §1

[5] = compound: C[C@@H]1COCCN1C2=NC(=NC(=C2)C3(CC3)S(=O)(=O)C)C4=C5C=CNC5=CC=C4
How it was run: as §1

[6] = compound: C[C@H](C1=CC=C(C=C1)C(=O)NC2=C3C=CNC3=NC=C2)N
How it was run: as §1

duvelisib = compound: C[C@H](Nc1ncnc2nc[nH]c12)c1cc2cccc(Cl)c2c(=O)n1-c1ccccc1 [duvelisib]
How it was run: as §1

gandotinib = compound: Cc1cc(Nc2cc(CN3CCOCC3)c3nc(C)c(Cc4ccc(Cl)cc4F)n3n2)n[nH]1 [gandotinib]
How it was run: as §1

tozasertib = compound: Cc1cc(Nc2cc(N3CCN(C)CC3)nc(Sc3ccc(NC(=O)C4CC4)cc3)n2)n[nH]1 [tozasertib]
How it was run: as §1

[7] = compound: Cc1cc(SCc2sc(-c3ccc(C(F)(F)F)cc3)nc2C)ccc1OCC(=O)O
How it was run: as §1

doramapimod = compound: Cc1ccc(-n2nc(C(C)(C)C)cc2NC(=O)Nc2ccc(OCCN3CCOCC3)c3ccccc23)cc1 [doramapimod]
How it was run: as §1

ispinesib = compound: Cc1ccc(C(=O)N(CCCN)[C@@H](c2nc3cc(Cl)ccc3c(=O)n2Cc2ccccc2)C(C)C)cc1 [ispinesib]
How it was run: as §1

Measured: log2 fold change

TBCB (UniProt Q99426)
inactive: [1] 0.011 | filanesib -0.019 | zotarolimus 0.013 | idasanutlin 0.019 | alisertib -0.011 | [2] -0.006 | gefitinib 0.037 | [3] -0.029 | lapatinib 0.016 | pictilisib -0.005 | [4] 0.02 | crizotinib 0.044 | [5] 0.05 | [6] -0.048 | duvelisib 0.013 | gandotinib -0.039 | tozasertib 0.043 | [7] 0.04 | doramapimod -0.033 | ispinesib -0.014

TBCE (UniProt Q15813)
inactive: [1] 0.044 | filanesib 0.075 | zotarolimus 0.057 | idasanutlin 0.085 | alisertib -0.053 | [2] 0.014 | gefitinib 0.071 | [3] -0.106 | lapatinib 0.005 | pictilisib 0.007 | [4] -0.031 | crizotinib -0.153 | [5] -0.047 | [6] 0.241 | duvelisib -0.041 | gandotinib 0.073 | tozasertib 0.064 | [7] 0.122 | doramapimod 0.096 | ispinesib -0.178

TGOLN2 isoform 7 (UniProt O43493)
inactive: [1] 0 | filanesib -0.174 | zotarolimus -0.017 | idasanutlin 0.031 | alisertib -0.04 | [2] -0.043 | gefitinib 0.054 | [3] 0.073 | lapatinib -0.017 | pictilisib -0.006 | [4] -0.018 | crizotinib 0.012 | [5] 0.028 | [6] -0.071 | duvelisib -0.008 | gandotinib 0.098 | tozasertib -0.052 | [7] -0.101 | doramapimod 0.072 | ispinesib -0.033

TGFBR3 (UniProt Q03167)
inactive: [1] -0.093 | filanesib 0.14 | zotarolimus -0.04 | idasanutlin 0.057 | alisertib -0.133 | [2] -0.017 | gefitinib 0.072 | [3] 0.066 | lapatinib 0.029 | pictilisib -0.011 | [4] 0.049 | crizotinib -0.022 | [5] -0.039 | [6] -0.057 | duvelisib 0.081 | gandotinib -0.063 | tozasertib 0.056 | [7] -0.02 | doramapimod 0.048 | ispinesib 0.094

TIMM8B (UniProt Q9Y5J9)
inactive: [1] 0.476 | filanesib 0.084 | zotarolimus 0.071 | idasanutlin 0.031 | alisertib -0.116 | [2] -0.227 | gefitinib 0.025 | [3] -0.044 | lapatinib -0.074 | pictilisib 0.014 | [4] -0.162 | crizotinib 0.109 | [5] 0.059 | [6] -0.174 | duvelisib 0.262 | gandotinib 0.053 | tozasertib 0.067 | [7] -0.009 | doramapimod -0.012 | ispinesib 0.214

TFB1M (UniProt Q8WVM0)
inactive: [1] -0.087 | filanesib 0.198 | zotarolimus 0.053 | idasanutlin 0.138 | alisertib -0.116 | [2] 0.107 | gefitinib -0.011 | [3] -0.112 | lapatinib 0.184 | pictilisib -0.015 | [4] -0.07 | crizotinib 0.095 | [5] -0.216 | [6] 0.207 | duvelisib 0.004 | gandotinib 0.105 | tozasertib -0.073 | [7] 0.048 | doramapimod 0.11 | ispinesib -0.069

TLCD1 (UniProt Q96CP7)
inactive: [1] -0.067 | filanesib -0.173 | zotarolimus 0.014 | idasanutlin -0.034 | alisertib -0.052 | [2] 0.058 | gefitinib 0.036 | [3] 0.031 | lapatinib 0.061 | pictilisib 0.023 | [4] 0.014 | crizotinib 0.005 | [5] -0.073 | [6] -0.002 | duvelisib -0.024 | gandotinib 0.054 | tozasertib -0.082 | [7] -0.297 | doramapimod 0.031 | ispinesib -0.211

THOC2 (UniProt Q8NI27)
inactive: [1] -0.002 | filanesib 0.148 | zotarolimus -0.088 | idasanutlin 0.157 | alisertib -0.071 | [2] -0.005 | gefitinib 0.015 | [3] -0.027 | lapatinib 0.074 | pictilisib -0.001 | [4] -0.033 | crizotinib -0.044 | [5] -0.014 | [6] 0.156 | duvelisib -0.023 | gandotinib -0.042 | tozasertib -0.041 | [7] -0.001 | doramapimod 0.104 | ispinesib -0.157

TFG (UniProt Q92734)
inactive: [1] -0.044 | filanesib 0.001 | zotarolimus -0.032 | idasanutlin -0.013 | alisertib -0.029 | [2] -0.034 | gefitinib -0.012 | [3] 0.067 | lapatinib -0.006 | pictilisib -0.062 | [4] -0.012 | crizotinib 0.049 | [5] -0.023 | [6] -0.094 | duvelisib -0.005 | gandotinib 0.051 | tozasertib -0.005 | [7] -0.02 | doramapimod -0.035 | ispinesib -0.007

TKT isoform 2 (UniProt P29401)
inactive: [1] -0.023 | filanesib -0.061 | zotarolimus -0.017 | idasanutlin -0.024 | alisertib -0.073 | [2] -0.015 | gefitinib 0.011 | [3] 0.006 | lapatinib -0.028 | pictilisib -0.015 | [4] -0.012 | crizotinib 0.001 | [5] 0.015 | [6] -0.089 | duvelisib 0.025 | gandotinib -0.002 | tozasertib -0.004 | [7] -0.008 | doramapimod 0.003 | ispinesib -0.027

TIMM10B (UniProt Q9Y5J6)
inactive: filanesib -0.068 | zotarolimus 0.023 | idasanutlin 0.009 | alisertib -0.205 | [2] 0.048 | gefitinib 0.022 | [3] 0.143 | lapatinib -0.248 | pictilisib -0.126 | [4] 0.107 | [5] 0.129 | [6] 0.031 | gandotinib 0.087 | [7] -0.161 | ispinesib 0.077

TDRD15 (UniProt B5MCY1)
inactive: filanesib 0.037 | zotarolimus -0.277 | alisertib 0.088 | [3] -0.479 | pictilisib 0.387 | [4] 0.061 | [6] 0.318 | duvelisib 0.209 | gandotinib -0.008 | tozasertib -0.188 | [7] -0.322 | ispinesib -0.11

TCP11L1 (UniProt Q9NUJ3)
inactive: idasanutlin -0.21 | alisertib -0.013 | [2] 0.05 | gefitinib -0.01 | [3] 0.044 | lapatinib -0.046 | duvelisib 0.096 | [7] -0.202

TCAF2 (UniProt A6NFQ2)
inactive: [1] -0.005 | zotarolimus 0.005 | gefitinib 0.054 | crizotinib -0.041 | [5] -0.251 | [6] 0.288 | doramapimod 0.284 | ispinesib -0.425

THEMIS2 (UniProt Q5TEJ8)
inactive: [1] -0.409 | [2] 0.1 | gefitinib -0.125 | lapatinib -0.002 | pictilisib 0.147 | crizotinib -0.091 | [5] -0.147 | duvelisib 0.046 | gandotinib -0.063 | tozasertib -0.116 | [7] 0.091 | doramapimod 0.031 | ispinesib -0.029
